Results as given in US8993635B2, “Method of increasing or maintaining the reproductive performance of sows” (Pork CRC Ltd, priority 2010, dated 2015).
Values joined by “and” are separate entries in the source; they are usually repeats but may differ in a detail not shown here. Equal values may be shown once. Marks after values point to notes of the source that are not given here.

Tested on: Large White/Landrace parity 1 sows
Test: Paylean (ractopamine) treatment during first lactation: maternal catabolism, post-weaning fertility, piglet growth, milk composition (Example 2)
Type: in vivo, pig
Protocol: This experiment was conducted at the University of Adelaide's Pig and Poultry Production Institute (PPPI) at Roseworthy, South Australia, with approval from the animal ethics committees of Primary Industries and Resources South Australia and The University of Adelaide. The experiment used sixty Large White/Landrace parity 1 sows, and was conducted in four replicates: replicates one and two were run in October and November 2006, respectively (spring); and replicates three and four were run in March and April 2007, respectively (autumn).
At entry into the farrowing shed, Sixty Large White/Landrace first parity sows were weighed, and P2 backfat and maximum eye muscle depth (MMD) measured. Sows were then stratified according to both liveweight and body composition and allocated to one of two treatment groups (n=30 sows). One group (Control) received a standard lactation diet (0.71 g avail. lys/MJ DE) throughout lactation, whilst the other group (Ractopamine) received the same standard lactation diet but supplemented with ractopamine at 10 parts per million (ppm) from days 1-13 of lactation and 20 ppm from day 14 of lactation until mating. Dietary treatments commenced on day 1 of lactation (Day 0=first 24 hours after farrowing). During lactation, the amount of feed offered each day was stepped up gradually, reaching 6 kg/day by day 7 of lactation, and was fed over three meals per day, with daily feed disappearance recorded for each sow. Weaning took place 21 days after farrowing, and between weaning and first Al sows received 3 kg/day of their respective diets. Sows were weighed, and P2 backfat and MMD measured on days 1, 7, 14 and 20 of lactation. Gilts were weighed prior to being fed, and P2 backfat and MMD were measured over the last rib 65 mm down from the vertebrae by an experienced commercial operator using a 3.5 MHz linear probe (Ausonics Impact). Litter size was standardised to 9 piglets within 24 hours of farrowing, with piglets receiving only maternal milk as their feed source and weighed on days 1, 7, 13 and 20 of their mother's lactation. Maternal milk samples were collected on days 3, 13 and 20 of lactation and analysed for fat and protein content.
After weaning, sows were housed in groups of three or four. Boar exposure commenced on the fourth day after weaning, consisted of 15 minutes of full, physical boar contact and was conducted in a detection mating area (DMA). At their first oestrus after weaning, sows two artificial inseminations (AIs), 24 hours apart.
All Als took place in the DMA, with fence-line contact with a boar during the procedure. Inseminations were performed as per standard industry practice using disposable spirette catheters, with each insemination consisting of an 80 ml dose of fresh, extended semen (3×10^9 spermatozoa per inseminate; <4 days old). Semen used for this experiment was purchased from a commercial artificial insemination collection centre (SABOR Pty. Ltd, Clare, South Australia). Sows not detected in oestrus by 10 days after weaning were described as anoestrous.

**Q.** How did the “Milk fat (g/l)” value (day 3 of lactation) turn out when `CC(CCc1ccc(O)cc1)NCC(O)c1ccc(O)cc1` (racemic) [Ractopamine, ractopamine] was run?
**A.** 80.4^c g/l

**Q.** What about the “Milk protein” value (day 3 of lactation) of the same compound?
**A.** 45.7 g/L

**Q.** What about the “Milk fat (g/l)” value (day 13 of lactation) of the same compound?
**A.** 64.7^a g/l

**Q.** And the “Milk protein” value (day 13 of lactation)?
**A.** 39 g/L

**Q.** What about the “Milk fat (g/l)” value (day 20 of lactation) of the same compound?
**A.** 65.8^a g/l

**Q.** What about the “Milk protein” value (day 20 of lactation) of the same compound?
**A.** 39.9 g/L

**Q.** What about the “Milk fat (g/l)” value (pooled across day) of the same compound?
**A.** tended (P=0.064) to be higher and 70.3* g/l

**Q.** What about the “Milk protein (g/l)” value (pooled across day) of the same compound?
**A.** significantly lower and 41.5^g g/l
